Source: the supplement of paper PMC10849652
The list shows a part of the results.

By UniProt entry, the sequences of proteins in these tests, tags left out. Where a name states a change or a piece, a line headed by the entry shows the natural chain unless it says otherwise.
UniProt O96007: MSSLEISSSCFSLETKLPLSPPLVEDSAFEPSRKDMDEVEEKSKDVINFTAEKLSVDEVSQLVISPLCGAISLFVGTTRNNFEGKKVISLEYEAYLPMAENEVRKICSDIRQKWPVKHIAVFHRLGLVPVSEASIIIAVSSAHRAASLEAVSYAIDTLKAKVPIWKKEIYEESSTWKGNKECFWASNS
UniProt Q10469: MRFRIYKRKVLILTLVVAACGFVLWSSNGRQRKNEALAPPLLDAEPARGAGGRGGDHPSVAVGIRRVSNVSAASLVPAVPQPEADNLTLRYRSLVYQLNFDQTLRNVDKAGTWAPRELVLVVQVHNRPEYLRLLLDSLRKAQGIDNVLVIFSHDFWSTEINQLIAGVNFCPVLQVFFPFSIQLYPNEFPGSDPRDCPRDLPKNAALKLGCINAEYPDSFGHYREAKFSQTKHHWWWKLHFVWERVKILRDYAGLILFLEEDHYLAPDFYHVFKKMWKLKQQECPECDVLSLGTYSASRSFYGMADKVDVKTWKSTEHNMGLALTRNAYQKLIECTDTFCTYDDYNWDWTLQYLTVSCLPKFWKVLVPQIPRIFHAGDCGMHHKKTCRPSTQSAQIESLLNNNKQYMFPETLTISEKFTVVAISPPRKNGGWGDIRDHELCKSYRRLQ
UniProt Q9UHC7: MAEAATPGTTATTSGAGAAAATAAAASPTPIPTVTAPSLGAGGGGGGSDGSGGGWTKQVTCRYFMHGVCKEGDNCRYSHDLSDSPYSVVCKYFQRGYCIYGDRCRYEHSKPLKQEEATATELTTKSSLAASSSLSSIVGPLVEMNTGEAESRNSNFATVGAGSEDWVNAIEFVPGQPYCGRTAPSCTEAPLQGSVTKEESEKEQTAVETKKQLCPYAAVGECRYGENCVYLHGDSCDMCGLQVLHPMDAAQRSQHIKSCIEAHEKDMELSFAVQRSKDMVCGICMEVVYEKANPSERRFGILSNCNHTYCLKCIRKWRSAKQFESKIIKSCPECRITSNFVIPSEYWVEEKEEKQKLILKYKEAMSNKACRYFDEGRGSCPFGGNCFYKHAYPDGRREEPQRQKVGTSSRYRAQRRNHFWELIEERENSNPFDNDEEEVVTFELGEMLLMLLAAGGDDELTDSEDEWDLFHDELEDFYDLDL
UniProt Q567V2: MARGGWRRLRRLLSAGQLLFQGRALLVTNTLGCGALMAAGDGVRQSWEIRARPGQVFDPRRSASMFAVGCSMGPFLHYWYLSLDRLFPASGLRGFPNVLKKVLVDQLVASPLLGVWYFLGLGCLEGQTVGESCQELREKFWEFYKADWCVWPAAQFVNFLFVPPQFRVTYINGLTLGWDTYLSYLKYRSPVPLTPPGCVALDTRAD
UniProt Q9UNW1: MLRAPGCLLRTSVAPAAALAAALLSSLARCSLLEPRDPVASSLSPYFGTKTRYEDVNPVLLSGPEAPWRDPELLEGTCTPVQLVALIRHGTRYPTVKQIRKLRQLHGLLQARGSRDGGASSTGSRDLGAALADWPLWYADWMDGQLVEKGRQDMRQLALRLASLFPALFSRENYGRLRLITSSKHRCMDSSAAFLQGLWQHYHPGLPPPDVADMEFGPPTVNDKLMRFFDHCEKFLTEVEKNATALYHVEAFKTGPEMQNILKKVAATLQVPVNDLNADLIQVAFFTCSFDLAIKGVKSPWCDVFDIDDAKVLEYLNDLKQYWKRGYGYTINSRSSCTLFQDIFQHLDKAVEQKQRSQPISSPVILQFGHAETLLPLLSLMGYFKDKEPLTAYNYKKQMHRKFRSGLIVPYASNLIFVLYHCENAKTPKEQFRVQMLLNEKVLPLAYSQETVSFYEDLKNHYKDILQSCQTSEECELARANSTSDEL
UniProt Q9UBU8, whole entry, looked up: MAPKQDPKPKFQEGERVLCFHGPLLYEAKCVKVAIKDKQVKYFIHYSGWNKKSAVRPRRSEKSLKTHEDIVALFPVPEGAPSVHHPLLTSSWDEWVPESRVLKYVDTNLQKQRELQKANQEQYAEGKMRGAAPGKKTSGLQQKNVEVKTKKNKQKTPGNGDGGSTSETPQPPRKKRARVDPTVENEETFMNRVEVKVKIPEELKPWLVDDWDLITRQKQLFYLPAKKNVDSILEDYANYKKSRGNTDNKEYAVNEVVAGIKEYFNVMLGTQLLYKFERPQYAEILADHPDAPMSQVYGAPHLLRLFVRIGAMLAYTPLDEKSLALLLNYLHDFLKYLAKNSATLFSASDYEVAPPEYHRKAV
UniProt Q7RTP6, whole entry, looked up: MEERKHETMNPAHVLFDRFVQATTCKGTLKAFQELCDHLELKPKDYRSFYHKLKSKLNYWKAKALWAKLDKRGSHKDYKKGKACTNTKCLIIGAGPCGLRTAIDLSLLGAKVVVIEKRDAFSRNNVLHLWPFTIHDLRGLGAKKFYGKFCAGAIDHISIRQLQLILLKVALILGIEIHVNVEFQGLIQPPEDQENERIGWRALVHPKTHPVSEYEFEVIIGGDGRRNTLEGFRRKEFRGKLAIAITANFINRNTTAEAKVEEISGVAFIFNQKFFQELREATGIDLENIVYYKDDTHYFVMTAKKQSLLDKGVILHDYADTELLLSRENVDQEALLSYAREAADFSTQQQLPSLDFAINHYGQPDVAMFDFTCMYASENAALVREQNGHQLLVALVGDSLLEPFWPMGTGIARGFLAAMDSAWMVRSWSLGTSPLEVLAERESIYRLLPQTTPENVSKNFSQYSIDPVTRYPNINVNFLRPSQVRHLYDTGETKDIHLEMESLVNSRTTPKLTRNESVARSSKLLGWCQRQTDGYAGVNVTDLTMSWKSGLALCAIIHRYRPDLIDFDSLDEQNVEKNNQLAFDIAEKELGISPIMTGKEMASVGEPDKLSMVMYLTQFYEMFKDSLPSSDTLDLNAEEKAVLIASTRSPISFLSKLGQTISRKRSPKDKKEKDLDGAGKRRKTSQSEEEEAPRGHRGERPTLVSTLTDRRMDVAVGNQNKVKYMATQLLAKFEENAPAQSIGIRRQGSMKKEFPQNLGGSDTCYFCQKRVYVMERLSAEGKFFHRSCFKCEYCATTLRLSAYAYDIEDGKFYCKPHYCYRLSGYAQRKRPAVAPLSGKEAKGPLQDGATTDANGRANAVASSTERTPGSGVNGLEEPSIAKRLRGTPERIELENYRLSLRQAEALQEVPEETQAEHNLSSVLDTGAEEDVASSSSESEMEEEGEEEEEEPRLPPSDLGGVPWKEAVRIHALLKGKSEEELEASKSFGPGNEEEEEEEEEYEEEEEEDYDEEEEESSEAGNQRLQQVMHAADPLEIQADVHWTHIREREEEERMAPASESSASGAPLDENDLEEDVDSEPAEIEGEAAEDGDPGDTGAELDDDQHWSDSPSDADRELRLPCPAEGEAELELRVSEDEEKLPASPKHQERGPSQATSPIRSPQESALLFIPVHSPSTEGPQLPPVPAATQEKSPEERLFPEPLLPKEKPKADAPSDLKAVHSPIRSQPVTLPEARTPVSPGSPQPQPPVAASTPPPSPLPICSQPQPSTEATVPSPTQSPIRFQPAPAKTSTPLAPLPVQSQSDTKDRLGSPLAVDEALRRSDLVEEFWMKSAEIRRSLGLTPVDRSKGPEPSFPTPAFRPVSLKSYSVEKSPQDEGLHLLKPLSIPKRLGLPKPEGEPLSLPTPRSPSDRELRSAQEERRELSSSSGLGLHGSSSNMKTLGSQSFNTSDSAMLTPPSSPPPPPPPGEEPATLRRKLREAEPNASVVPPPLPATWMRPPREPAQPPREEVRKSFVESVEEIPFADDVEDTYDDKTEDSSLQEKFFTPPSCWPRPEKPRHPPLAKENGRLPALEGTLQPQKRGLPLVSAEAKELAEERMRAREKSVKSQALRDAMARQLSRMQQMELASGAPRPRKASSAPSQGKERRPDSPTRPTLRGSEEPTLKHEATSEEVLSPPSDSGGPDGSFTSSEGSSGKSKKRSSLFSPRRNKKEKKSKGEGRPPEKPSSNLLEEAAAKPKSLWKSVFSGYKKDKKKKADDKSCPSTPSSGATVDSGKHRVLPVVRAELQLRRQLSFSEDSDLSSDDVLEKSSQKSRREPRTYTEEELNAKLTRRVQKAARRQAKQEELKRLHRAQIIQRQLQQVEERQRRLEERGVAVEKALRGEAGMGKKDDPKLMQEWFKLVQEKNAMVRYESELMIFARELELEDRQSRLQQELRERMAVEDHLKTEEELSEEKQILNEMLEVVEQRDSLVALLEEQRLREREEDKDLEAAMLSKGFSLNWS
UniProt Q86YT6, whole entry, looked up: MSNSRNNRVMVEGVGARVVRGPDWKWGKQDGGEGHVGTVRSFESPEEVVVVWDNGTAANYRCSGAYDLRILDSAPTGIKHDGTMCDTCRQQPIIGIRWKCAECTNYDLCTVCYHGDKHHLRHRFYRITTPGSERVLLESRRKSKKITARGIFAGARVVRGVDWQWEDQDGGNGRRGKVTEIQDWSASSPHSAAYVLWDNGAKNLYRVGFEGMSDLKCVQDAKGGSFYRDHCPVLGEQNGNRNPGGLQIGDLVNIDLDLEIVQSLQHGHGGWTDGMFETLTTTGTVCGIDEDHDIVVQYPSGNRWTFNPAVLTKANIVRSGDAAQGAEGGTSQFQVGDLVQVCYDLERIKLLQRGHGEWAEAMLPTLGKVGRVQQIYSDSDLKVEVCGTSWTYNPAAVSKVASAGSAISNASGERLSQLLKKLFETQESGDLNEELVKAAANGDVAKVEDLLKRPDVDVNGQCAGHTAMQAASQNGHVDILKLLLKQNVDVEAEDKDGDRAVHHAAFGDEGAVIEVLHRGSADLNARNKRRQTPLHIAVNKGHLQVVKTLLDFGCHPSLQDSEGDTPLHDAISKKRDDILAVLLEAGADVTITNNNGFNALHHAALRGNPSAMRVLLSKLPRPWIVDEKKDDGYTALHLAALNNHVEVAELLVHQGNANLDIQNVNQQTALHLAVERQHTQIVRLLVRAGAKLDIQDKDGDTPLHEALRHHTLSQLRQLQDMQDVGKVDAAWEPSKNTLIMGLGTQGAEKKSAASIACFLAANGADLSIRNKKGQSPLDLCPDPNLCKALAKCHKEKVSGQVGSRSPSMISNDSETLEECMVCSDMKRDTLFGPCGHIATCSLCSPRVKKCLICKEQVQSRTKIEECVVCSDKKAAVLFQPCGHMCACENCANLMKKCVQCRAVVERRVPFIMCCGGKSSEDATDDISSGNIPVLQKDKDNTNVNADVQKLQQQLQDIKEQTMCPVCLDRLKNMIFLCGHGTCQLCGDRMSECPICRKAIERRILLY
UniProt Q8IY33: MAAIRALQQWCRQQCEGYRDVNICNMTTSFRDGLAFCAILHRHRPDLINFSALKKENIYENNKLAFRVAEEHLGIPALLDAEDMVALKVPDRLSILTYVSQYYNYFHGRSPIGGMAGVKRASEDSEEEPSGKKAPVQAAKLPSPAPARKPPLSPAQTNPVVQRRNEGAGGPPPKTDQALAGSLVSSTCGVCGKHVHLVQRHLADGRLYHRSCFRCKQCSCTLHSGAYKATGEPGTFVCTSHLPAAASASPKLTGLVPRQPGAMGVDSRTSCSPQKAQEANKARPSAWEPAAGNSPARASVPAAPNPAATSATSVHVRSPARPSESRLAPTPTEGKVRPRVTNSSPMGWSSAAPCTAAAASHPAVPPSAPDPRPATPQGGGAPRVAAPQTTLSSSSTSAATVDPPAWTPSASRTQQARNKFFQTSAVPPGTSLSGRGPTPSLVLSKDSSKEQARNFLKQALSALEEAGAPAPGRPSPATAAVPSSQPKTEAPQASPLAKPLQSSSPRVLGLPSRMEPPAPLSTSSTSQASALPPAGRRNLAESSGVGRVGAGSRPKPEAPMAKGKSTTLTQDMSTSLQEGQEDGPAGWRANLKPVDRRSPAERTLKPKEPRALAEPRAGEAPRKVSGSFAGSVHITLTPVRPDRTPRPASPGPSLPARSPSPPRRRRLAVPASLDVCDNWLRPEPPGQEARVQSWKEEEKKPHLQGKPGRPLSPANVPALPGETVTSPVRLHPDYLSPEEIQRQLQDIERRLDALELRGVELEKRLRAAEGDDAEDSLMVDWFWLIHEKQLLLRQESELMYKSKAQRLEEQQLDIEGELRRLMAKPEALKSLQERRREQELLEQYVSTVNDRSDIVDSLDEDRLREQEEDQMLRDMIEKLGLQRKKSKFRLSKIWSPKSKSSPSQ
UniProt Q9H000: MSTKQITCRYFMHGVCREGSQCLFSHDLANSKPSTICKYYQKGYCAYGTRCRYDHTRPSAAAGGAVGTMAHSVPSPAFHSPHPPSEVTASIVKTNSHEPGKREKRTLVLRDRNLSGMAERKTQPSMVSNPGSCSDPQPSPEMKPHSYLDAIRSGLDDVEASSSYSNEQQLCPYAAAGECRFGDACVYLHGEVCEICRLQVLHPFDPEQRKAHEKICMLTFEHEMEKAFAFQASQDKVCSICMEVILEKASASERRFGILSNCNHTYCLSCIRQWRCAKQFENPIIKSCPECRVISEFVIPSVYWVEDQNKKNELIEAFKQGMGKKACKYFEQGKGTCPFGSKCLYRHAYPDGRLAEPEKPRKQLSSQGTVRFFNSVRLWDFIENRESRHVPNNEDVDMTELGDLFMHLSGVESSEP

Tests used:
Experiment in all cases: log2 fold change, soluble protein after heating vs DMSO (PISA); higher = thermal stabilisation; K562 lysate, 10 uM; active = over 0.2 and 3.5 SD of the protein, either way, in both replicates (recomputed)
[1] = compound: CS(=O)(=O)CCNCc1ccc(-c2ccc3ncnc(Nc4ccc(OCc5cccc(F)c5)c(Cl)c4)c3c2)o1 [lapatinib]
Method in brief: (§1)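 Values give the log-two fold change in thermal stability against solvent controls, from duplicates. Crude K562 extract at 1 mg/mL protein, made by dounce homogenisation in PBS pH 7.4 with 1 mM MgCl2, was treated with 10 μM compound for 30 min. After 3 min heating across 48°C-58°C, aliquots were pooled, adjusted to 0.5% NP-40 at 4°C and centrifuged at 21,000xg for 90 min. The supernatant was measured by TMTpro 16plex LC-MS/MS with channel sums equalised.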

[2] = compound: CS(=O)(=O)N1CCN(Cc2cc3nc(-c4cccc5[nH]ncc45)nc(N4CCOCC4)c3s2)CC1 [pictilisib]
Method in brief: as §1

[3] = compound: C[C@@H](Oc1cc(-c2cnn(C3CCNCC3)c2)cnc1N)c1c(Cl)ccc(F)c1Cl [crizotinib]
Method in brief: as §1

[4] = compound: C[C@H](C1=CC=C(C=C1)C(=O)NC2=C3C=CNC3=NC=C2)N
Method in brief: as §1

[5] = compound: C[C@H](Nc1ncnc2nc[nH]c12)c1cc2cccc(Cl)c2c(=O)n1-c1ccccc1 [duvelisib]
Method in brief: as §1

[6] = compound: Cc1cc(Nc2cc(CN3CCOCC3)c3nc(C)c(Cc4ccc(Cl)cc4F)n3n2)n[nH]1 [gandotinib]
Method in brief: as §1

[7] = compound: Cc1cc(Nc2cc(N3CCN(C)CC3)nc(Sc3ccc(NC(=O)C4CC4)cc3)n2)n[nH]1 [tozasertib]
Method in brief: as §1

[8] = compound: Cc1ccc(-n2nc(C(C)(C)C)cc2NC(=O)Nc2ccc(OCCN3CCOCC3)c3ccccc23)cc1 [doramapimod]
Method in brief: as §1

[9] = compound: Cc1ccc(NC(=O)c2ccc(CN3CC[C@H](N(C)C)C3)c(C(F)(F)F)c2)cc1Nc1nccc(-c2cncnc2)n1 [bafetinib]
Method in brief: as §1

[10] = compound: Cc1cccc(CC(=O)N2CCc3c2ccc(-c2cn(C)c4ncnc(N)c24)c3F)n1
Method in brief: as §1

Target	log2 fold change [1]	log2 fold change [2]	log2 fold change [3]	log2 fold change [4]	log2 fold change [5]	log2 fold change [6]	log2 fold change [7]	log2 fold change [8]	log2 fold change [9]	log2 fold change [10]
MICU2 (UniProt Q8IYU8)	inactive: -0.057	inactive: 0.036	inactive: -0.043	inactive: 0.026	inactive: 0.015	active: -0.264	inactive: 0.083	inactive: 0.029	inactive: -0.056	inactive: 0.029
MOCS2 (UniProt O96007)	inactive: 0.024	inactive: -0.027	inactive: 0.07	inactive: 0.089	inactive: 0.019	inactive: 0.043	inactive: -0.026	inactive: -0.073	inactive: -0.012	inactive: -0.001
MIEF1 (UniProt Q9NQG6)	inactive: 0.039	inactive: -0.034	inactive: -0.093	inactive: 0.003	inactive: -0.03	inactive: -0.185	inactive: -0.025	inactive: 0.059	inactive: -0.071	inactive: 0.017
MGAT2 (UniProt Q10469)	inactive: -0.012	inactive: -0.047	inactive: 0.017	inactive: -0.05	inactive: -0.038	inactive: 0.03	inactive: 0.12	inactive: 0.004	inactive: -0.094	inactive: 0.05
MRPL23 (UniProt Q16540)	inactive: 0.009	inactive: -0.048	inactive: -0.055	inactive: -0.006	inactive: 0.036	inactive: -0.082	inactive: -0.153	inactive: 0.037	inactive: -0.079	inactive: -0.023
MIEF1 (UniProt L0R8F8)	inactive: 0.017	inactive: -0.051	inactive: -0.017	inactive: 0.143	inactive: -0.015	inactive: -0.102	inactive: -0.058	inactive: 0.028	inactive: 0.064	inactive: -0.065
MGST1 (UniProt P10620)	inactive: -0.047	inactive: 0.018	inactive: 0.003	active: 0.22	inactive: 0.013	inactive: -0.025	inactive: -0.011	inactive: -0.041	inactive: -0.032	inactive: -0.016
MOCOS (UniProt Q96EN8)	inactive: -0.004	inactive: -0.034	inactive: -0.049	inactive: -0.034	inactive: 0.013	inactive: 0.053	inactive: 0.055	inactive: 0.066	inactive: -0.019	inactive: -0.016
MRPL1 (UniProt Q9BYD6)	inactive: 0.001	inactive: 0.019	inactive: -0.031	inactive: -0.042	inactive: 0.037	inactive: -0.029	inactive: 0.016	inactive: 0.03	inactive: 0.019	inactive: 0.045
MKI67 (UniProt P46013)	inactive: -0.007	inactive: 0.059	inactive: -0.002	inactive: -0.015	inactive: 0.013	inactive: 0.025	inactive: 0.004	inactive: 0.001	inactive: -0.009	inactive: 0.021
MKRN1 (UniProt Q9UHC7)	inactive: -0.025	inactive: 0.017	inactive: -0.016	inactive: -0.035	inactive: 0.024	inactive: -0.023	inactive: -0.027	inactive: 0.04	inactive: -0.043	inactive: 0.014
MPV17L2 (UniProt Q567V2)	inactive: -0.061	inactive: 0.02	inactive: 0.001	inactive: -0.061	inactive: -0.059	inactive: 0.057	inactive: -0.165	inactive: -0.074	inactive: -0.067	inactive: 0.02
MINPP1 (UniProt Q9UNW1)	inactive: 0	inactive: 0.018	inactive: 0.055	inactive: -0.003	inactive: 0	inactive: 0.013	inactive: -0.007	inactive: -0.009	inactive: 0.03	inactive: -0.01
MOB3B (UniProt Q86TA1)	inactive: -0.062	inactive: -0.141	inactive: -0.059	inactive: 0.161	inactive: -0.016	inactive: -0.093	inactive: 0.173	inactive: 0.038	inactive: -0.073	inactive: 0.03
MMGT1 (UniProt Q8N4V1)	inactive: 0.013	inactive: -0.044	inactive: -0.015	inactive: -0.055	inactive: -0.035	inactive: 0.046	inactive: -0.023	inactive: 0.032	inactive: -0.023	inactive: 0.028
MNX1 (UniProt P50219)	inactive: 0.051	inactive: 0.259	inactive: -0.016	inactive: -0.247	inactive: 0.008	inactive: -0.077	inactive: -0.017	inactive: -0.007	inactive: 0	inactive: 0.014
MPC2 (UniProt O95563)	inactive: -0.028	inactive: -0.012	inactive: -0.018	inactive: -0.145	inactive: -0.007	inactive: 0.08	inactive: 0.004	inactive: -0.017	inactive: -0.038	inactive: 0.094
MICAL1 isoform 4 (UniProt Q8TDZ2)	inactive: 0.048	inactive: -0.036	inactive: -0.063	inactive: 0.025	inactive: 0.031	inactive: -0.035	inactive: 0.024	inactive: -0.014	inactive: -0.019	inactive: 0.018
MIA2 (UniProt Q96PC5)	inactive: 0.101	inactive: -0.066	inactive: -0.044	inactive: 0.183	inactive: -0.05	inactive: -0.161	inactive: 0.003	inactive: 0.018	inactive: -0.019	inactive: -0.088
MON1A (UniProt Q86VX9)	inactive: 0.005	inactive: -0.103	inactive: 0.028	inactive: -0.168	inactive: -0.023	inactive: 0.1	inactive: -0.073	inactive: -0.028	inactive: 0.01	inactive: 0.107
MORF4L1 isoform 2 (UniProt Q9UBU8)	inactive: 0.024	inactive: 0.023	inactive: 0.025	inactive: -0.058	inactive: 0.021	inactive: 0.037	inactive: -0.019	inactive: -0.047	inactive: -0.01	inactive: 0.006
MGST2 (UniProt Q99735)	inactive: -0.049	inactive: -0.019	inactive: -0.022	inactive: 0	inactive: 0.017	inactive: -0.005	inactive: -0.047	inactive: 0.071	inactive: -0.099	inactive: 0.161
MICB, A0A140T979	inactive: -0.169	inactive: -0.074	inactive: -0.067	inactive: -0.042	inactive: 0.052	inactive: 0.011	inactive: -0.177	inactive: -0.003	inactive: -0.001	inactive: 0.027
MPDU1 (UniProt O75352)	inactive: -0.004	inactive: 0.054	inactive: -0.076	inactive: -0.035	inactive: 0.015	inactive: 0.071	inactive: -0.124	inactive: 0.044	inactive: 0.002	inactive: 0.067
MICAL3 (UniProt Q7RTP6)	inactive: 0.006	inactive: -0.015	inactive: 0.001	inactive: -0.058	inactive: 0	inactive: 0.033	inactive: -0.024	inactive: -0.007	inactive: -0.03	inactive: 0.027
MIB1 (UniProt Q86YT6)	inactive: -0.031	inactive: -0.034	inactive: -0.014	inactive: -0.096	inactive: 0.053	inactive: -0.057	inactive: 0.001	inactive: 0.02	inactive: 0.051	inactive: -0.021
MICALL2 (UniProt Q8IY33)	inactive: 0.027	inactive: -0.001	inactive: -0.006	inactive: 0.002	inactive: -0.011	inactive: 0.038	inactive: -0.014	inactive: 0.02	inactive: -0.082	inactive: -0.014
MKRN2 (UniProt Q9H000)	inactive: 0.025	inactive: -0.007	inactive: -0.006	inactive: 0.014	inactive: -0.036	inactive: -0.071	inactive: 0.01	inactive: 0.026	inactive: -0.103	inactive: 0.015
MRPL14 (UniProt Q6P1L8)	inactive: 0.033	inactive: -0.02	inactive: -0.028	inactive: -0.012	inactive: 0.024	inactive: -0.034	inactive: 0.016	inactive: 0.001	inactive: -0.009	inactive: 0.116
MRM1 (UniProt Q6IN84)	inactive: -0.112	inactive: -0.002	inactive: -0.022	inactive: 0.007	inactive: 0.012	inactive: -0.019	inactive: 0	inactive: 0.016	inactive: -0.002	inactive: 0.048

Part of the list above, reduced to log2 fold change [5].
Target | log2 fold change [5]
MKRN2 (UniProt Q9H000) | inactive: -0.036
MRPL14 (UniProt Q6P1L8) | inactive: 0.024
